Test results: PMC5665954, “Coupling fission and exit of RAB6 vesicles at Golgi hotspots through kinesin-myosin interactions” (Nature Communications, 2017)
Results are given in words; binding and its absence hold for the method and conditions named. A result given as binding can be weak or reduced; the word gives no strength. For some of these results: Sequences can lack the tags named with a protein.

T1: KIF20A-RBD-529-665 fragment (mouse) (UniProt P97329)
T1 sequence: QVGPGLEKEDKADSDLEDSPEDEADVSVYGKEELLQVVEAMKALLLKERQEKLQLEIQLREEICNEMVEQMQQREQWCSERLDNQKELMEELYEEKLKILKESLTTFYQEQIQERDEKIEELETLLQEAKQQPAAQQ

T2: KIF20A tail domain (529-887) (mouse) (UniProt P97329)
T2 sequence: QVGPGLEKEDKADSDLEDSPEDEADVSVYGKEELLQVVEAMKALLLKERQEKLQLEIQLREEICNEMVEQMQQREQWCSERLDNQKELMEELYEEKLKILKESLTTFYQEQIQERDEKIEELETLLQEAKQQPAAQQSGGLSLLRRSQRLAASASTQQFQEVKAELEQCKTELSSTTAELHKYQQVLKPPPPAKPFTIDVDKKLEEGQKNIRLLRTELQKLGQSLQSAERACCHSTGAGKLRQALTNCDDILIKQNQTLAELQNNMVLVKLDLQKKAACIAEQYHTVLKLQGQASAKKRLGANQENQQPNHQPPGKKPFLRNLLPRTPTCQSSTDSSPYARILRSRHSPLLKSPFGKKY


Columns and labels:
[1] = target: T1, KIF20A-RBD-529-665 fragment (mouse); assay: two-hybrid; S. cerevisiae reporter strain L40 co-transformed with plasmids for the two fusion proteins; LexA fusions of KIF20A domains; growth on medium lacking histidine (-W -L -H)
[2] = target: T2, KIF20A tail domain (529-887) (mouse); assay: as above
[3] = target: GST-Myosin II-1148-1652 (human); assay: ELISA; solid-phase assay: 96-well plates coated with 10 µg GST-GFP, GST-Myosin II-1148-1652 or GST-RAB6A:GTP; 0-40 µg 6xHis-RAB6:GTP or 6xHis-KIF20A-529-665 added; 20 mM Hepes pH 7.5, 100 mM NaCl, 5 mM MgCl2; detection with anti-6xHis antibodies, absorbance at 450 nm; both purified

binding [1]	binding [2]	binding [3]	Molecule
binds			KIF20A-529-665-K629W-S631W (from UniProt P97329) (domain or fragment)
binds	binds		Tail domain of Myosin II (1147-1653 fragment of human myosin IIA heavy chain) (domain or fragment)
		binds	6xHis-KIF20A-RBD-529-665 (domain or fragment, UniProt P97329 529-665) QVGPGLEKEDKADSDLEDSPEDEADVSVYGKEELLQVVEAMKALLLKERQEKLQLEIQLREEICNEMVEQMQQREQWCSERLDNQKELMEELYEEKLKILKESLTTFYQEQIQERDEKIEELETLLQEAKQQPAAQQ
